The assay addresses HBV core protein (hepatitis B virus, genotype D (HepAD38 cells)) (UniProt P03146). Nature of the assay: co-IP; HepAD38 cells transduced with AID-expressing vector were lysed and immunoprecipitated with anti-core antibody or control normal IgG; AID detected by immunoblot.

Chains of the proteins cited; added tags and fusions are not shown.
UniProt P03146: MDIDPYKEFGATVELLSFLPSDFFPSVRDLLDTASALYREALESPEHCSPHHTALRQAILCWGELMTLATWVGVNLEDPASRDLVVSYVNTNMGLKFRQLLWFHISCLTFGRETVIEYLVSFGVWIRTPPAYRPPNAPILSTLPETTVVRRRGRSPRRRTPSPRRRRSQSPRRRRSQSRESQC
UniProt Q9GZX7: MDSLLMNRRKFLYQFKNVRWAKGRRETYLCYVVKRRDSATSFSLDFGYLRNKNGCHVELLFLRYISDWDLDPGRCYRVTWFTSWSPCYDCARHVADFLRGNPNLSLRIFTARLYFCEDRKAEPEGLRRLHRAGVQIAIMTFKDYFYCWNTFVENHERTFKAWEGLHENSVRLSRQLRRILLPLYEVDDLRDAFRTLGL

Drawing on paper PMC3814766, this text covers binding for one substance.

Results are given in words; binding and its absence hold for the method and conditions named. Binding seen in cells or lysates may run through a third protein. Some entries that bind do so weakly or less than the wild type.

Take “activation-induced cytidine deaminase (from UniProt Q9GZX7 1-198) (enzyme)”: the binding entry is listed as “binds”.
